Experimental data taken from patent US7998954B2, “Pyrimidodiazepinone derivative” (Kyowa Hakko Kirin Co., Ltd., priority 2007, dated 2011).
Some of these results come from one statement about several compounds together. At least one compound was matched to its structure with a doubt left.

System: α2δ protein
Assay: α2δ protein binding experiment ([3H]-gabapentin binding inhibition, rat cerebral cortex membrane fraction)
Settings: 0.1 μmol/L test compound, 20 nmol/L [3H]-Gabapentin

| SMILES | inhibitory activity ([3H]-Gabapentin binding inhibition) [%] |
| --- | --- |
| CCNc1ncc2c(n1)N1CCC[C@H]1CN(c1ccccc1-c1nnc(C)o1)C2=O [Compound 115, (S)-9-Ethylamino-5-[2-(5-methyl-1,3,4-oxadiazol-2-yl)phenyl]-1,2,3,3a,4,5-hexahydro-5,8,10,10b-tetraazabenzo[e]azulen-6-one] | ≥ 50 |
| CCNc1ncc2c(n1)N1CCC[C@H]1CN(c1ccc(F)c(-c3nn(C)c(=O)o3)c1)C2=O [Compound 116, (S)-5-[5-(9-Ethylamino-6-oxo-2,3,3a,4-tetrahydro-1H,6H-5,8,10,10b-tetraazabenzo[e]azulen-5-yl)-2-fluorophenyl]-3-methyl-1,3,4-oxazol-2(3H)-one] | ≥ 50 |
| CCNc1ncc2c(n1)N1CCC[C@H]1CN(c1cccc(-c3cnco3)c1)C2=O [Compound 120, (S)-9-Ethylamino-5-[3-(1,3-oxazol-5-yl)phenyl]-1,2,3,3a,4,5-hexahydro-5,8,10,10b-tetraazabenzo[e]azulen-6-one] | ≥ 50 |
| CNc1ncc2c(n1)N1CCC[C@H]1CN(c1cccc(-c3ncc(C)o3)c1)C2=O [Compound 121, (S)-5-[3-(5-Methyl-1,3-oxazol-2-yl)phenyl]-9-methylamino-1,2,3,3a,4,5-hexahydro-5,8,10,10b-tetraazabenzo[e]azulen-6-one] | ≥ 50 |
| CCNc1ncc2c(n1)N1CCC[C@H]1CN(c1cccc(-c3ncc(CO)o3)c1)C2=O [Compound 122, (S)-9-Ethylamino-5-[3-(5-hydroxymethyl-1,3-oxazol-2-yl)phenyl]-1,2,3,3a,4,5-hexahydro-5,8,10,10b-tetraazabenzo[e]azulen-6-one] | ≥ 50 |
| CCNc1ncc2c(n1)N1CCC[C@H]1CN(c1cccc(-c3nc(C(=O)OC)co3)c1)C2=O [Compound 123, Methyl (S)-2-[3-(9-Ethylamino-6-oxo-2,3,3a,4-tetrahydro-1H,6H-5,8,10,10b-tetraazabenzo[e]azulen-5-yl)phenyl]-1,3-oxazole-4-carboxylate] | ≥ 50 |
| CCNC(=O)c1coc(-c2cccc(N3C[C@@H]4CCCN4c4nc(NCC)ncc4C3=O)c2)n1 [Compound 124, (S)—N-Ethyl 2-[3-(9-Ethylamino-6-oxo-2,3,3a,4-tetrahydro-1H,6H-5,8,10,10b-tetraazabenzo[e]azulen-5-yl)phenyl]-1,3-oxazole-4-carboxamide] | ≥ 50 |
| CCNc1ncc2c(n1)N1CCC[C@H]1CN(c1cccc(-c3ncc(C#N)o3)c1)C2=O [Compound 125, (S)-5-[3-(5-Cyano-1,3-oxazol-2-yl)phenyl]-9-ethylamino-1,2,3,3a,4,5-hexahydro-5,8,10,10b-tetraazabenzo[e]azulen-6-one] | ≥ 50 |
| CNc1ncc2c(n1)N1CCC[C@H]1CN(c1cccc(-c3ncc(C#N)o3)c1)C2=O [Compound 126, (S)-5-[3-(5-Cyano-1,3-oxazol-2-yl)phenyl]-9-methylamino-1,2,3,3a,4,5-hexahydro-5,8,10,10b-tetraazabenzo[e]azulen-6-one] | ≥ 50 |
| CCNc1ncc2c(n1)N1CCC[C@H]1CN(c1cccc(-c3ncc(C(N)=O)o3)c1)C2=O [Compound 127, (S)-2-[3-(9-Ethylamino-6-oxo-2,3,3a,4-tetrahydro-1H,6H-5,8,10,10b-tetraazabenzo[e]azulen-5-yl)phenyl]-1,3-oxazole-5-carboxamide] | ≥ 50 |
| CCNc1ncc2c(n1)N1CCC[C@H]1CN(c1cccc(-c3nc(C(=O)N(C)C)co3)c1)C2=O [Compound 128, (S)—N,N-Dimethyl 2-[3-(9-Ethylamino-6-oxo-2,3,3a,4-tetrahydro-1H,6H-5,8,10,10b-tetraazabenzo[e]azulen-5-yl)phenyl]-1,3-oxazole-4-carboxamide] | ≥ 50 |
| CCNc1ncc2c(n1)N1CCC[C@H]1CN(c1cccc(-c3nc(C(=O)NC)co3)c1)C2=O [Compound 129, (S)—N-Methyl 2-[3-(9-Ethylamino-6-oxo-2,3,3a,4-tetrahydro-1H,6H-5,8,10,10b-tetraazabenzo[e]azulen-5-yl)phenyl]-1,3-oxazole-4-carboxamide] | ≥ 50 |
| CNc1ncc2c(n1)N1CCC[C@H]1CN(c1cccc(-c3nc(C#N)co3)c1)C2=O [Compound 130, (S)-5-[3-(4-Cyano-1,3-oxazol-2-yl)phenyl]-9-methylamino-1,2,3,3a,4,5-hexahydro-5,8,10,10b-tetraazabenzo[e]azulen-6-one] | ≥ 50 |
| CNc1ncc2c(n1)N1CCC[C@H]1CN(c1cccc(-c3nc(C(=O)N4CCOCC4)co3)c1)C2=O [Compound 131] | ≥ 50 |
| CCNc1ncc2c(n1)N1CCC[C@H]1CN(c1cccc(-c3nc(C(=O)NCCF)co3)c1)C2=O [Compound 132, (S)—N-(2-Fluoroethyl) 2-[3-(9-ethylamino-6-oxo-2,3,3a,4-tetrahydro-1H,6H-5,8,10,10b-tetraazabenzo[e]azulen-5-yl)phenyl]-1,3-oxazole-4-carboxamide] | ≥ 50 |
| CNc1ncc2c(n1)N1CCC[C@H]1CN(c1cccc(-c3nc(C(=O)NCC#N)co3)c1)C2=O [Compound 133, (S)—N-Cyanomethyl 2-[3-(9-methylamino-6-oxo-2,3,3a,4-tetrahydro-1H,6H-5,8,10,10b-tetraazabenzo[e]azulen-5-yl)phenyl]-1,3-oxazole-4-carboxamide] | ≥ 50 |
| CCNc1ncc2c(n1)N1CCC[C@H]1CN(c1cccc(-c3nc(C(=O)NCC#N)c(C)o3)c1)C2=O [Compound 134, (S)—N-Cyanomethyl 2-[3-(9-ethylamino-6-oxo-2,3,3a,4-tetrahydro-1H,6H-5,8,10,10b-tetraazabenzo[e]azulen-5-yl)phenyl]-5-methyl-1,3-oxazole-4-carboxamide] | ≥ 50 |
| CNc1ncc2c(n1)N1CCC[C@H]1CN(c1cccc(-c3nc(C(=O)NCC#N)c(C)o3)c1)C2=O [Compound 135, (S)—N-Cyanomethyl 5-methyl-2-[3-(9-methylamino-6-oxo-2,3,3a,4-tetrahydro-1H,6H-5,8,10,10b-tetraazabenzo[e]azulen-5-yl)phenyl]-1,3-oxazole-4-carboxamide] | ≥ 50 |
| CCNc1ncc2c(n1)N1CCC[C@H]1CN(c1cccc(-c3nnn(C)n3)c1)C2=O [Compound 136, (S)-9-Ethylamino-5-[3-(2-methyl-2H-tetrazol-5-yl)phenyl]-1,2,3,3a,4,5-hexahydro-5,8,10,10b-tetraazabenzo[e]azulen-6-one] | ≥ 50 |
| CNc1ncc2c(n1)N1CCC[C@H]1CN(c1cccc(-c3nnn(C)n3)c1)C2=O [Compound 137, (S)-5-[3-(2-Methyl-2H-tetrazol-5-yl)phenyl]-9-methylamino-1,2,3,3a,4,5-hexahydro-5,8,10,10b-tetraazabenzo[e]azulen-6-one] | ≥ 50 |
| CCNc1ncc2c(n1)N1CCC[C@H]1CN(c1cccc(-c3nnnn3C)c1)C2=O [Compound 138, (S)-9-Ethylamino-5-[3-(1-methyl-1H-tetrazol-5-yl)phenyl]-1,2,3,3a,4,5-hexahydro-5,8,10,10b-tetraazabenzo[e]azulen-6-one] | ≥ 50 |
